In assay [1] the target is T1, RsrA with N-terminal histidine tag, co-expressed with σ^R (pET15b-rsrA) (Streptomyces coelicolor) (UniProt Q7AKG8).
T1 sequence: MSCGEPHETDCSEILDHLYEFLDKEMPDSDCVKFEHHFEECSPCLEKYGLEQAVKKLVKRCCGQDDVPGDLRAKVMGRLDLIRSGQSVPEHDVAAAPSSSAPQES
In words: cross-linking; 5 μM purified complex with 2 mM BS2G-d0/d4 or BS3-d0/d4, 20 mM Hepes pH 7.5, 50 mM NaCl, 2 mM DTT, room temperature 30 min; SDS-PAGE bands digested with trypsin, LC-MS/MS, pLink; both purified.

Protein sequences, listed by entry. Tags and fused reporters are not part of them.
UniProt Q7AKG9: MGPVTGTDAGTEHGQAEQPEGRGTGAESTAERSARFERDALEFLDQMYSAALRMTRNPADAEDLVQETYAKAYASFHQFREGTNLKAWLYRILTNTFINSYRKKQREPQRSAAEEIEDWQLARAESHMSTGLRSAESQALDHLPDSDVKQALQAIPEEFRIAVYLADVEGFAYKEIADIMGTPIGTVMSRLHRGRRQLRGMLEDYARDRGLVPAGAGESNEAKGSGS

In assay [2] the target is T1, RsrA with N-terminal histidine tag, co-expressed with σ^R (pET15b-rsrA) (Streptomyces coelicolor). In words: co-purification of co-expressed proteins (Ni-NTA, then SEC); RsrA and σ^R co-expressed in E. coli; captured by the N-terminal histidine tag of RsrA on Ni-NTA, then Superdex-75.

These are yes or no findings as the source states them, for the method shown. Some binding calls cover weakened binding; strength is not graded here. Tags and fused reporters may be left off the sequences shown.

Consider “σ^R co-expressed with RsrA (pCDF-DUET1-sigR) (from UniProt Q7AKG9 1-227)”, for which the binding result in assay [1] and in assay [2] was “binds” each time.

Values taken from publication PMC4960319.
